Source: publication PMC7717961
Results are given in words; binding and its absence hold for the method and conditions named. In cells and extracts the contact can be indirect. Some results given as binding are weak or reduced against the parent protein; the word gives no strength. Tags and fused reporters may be left off the sequences shown.

Protein sequences, listed by entry. Tags and fused reporters are not part of them. Lines headed by an entry give the natural chain unless they say otherwise; changes in a name come on top. Chains listed by the source or under a name are the forms on record and can include a tag or linker.
UniProt P54105: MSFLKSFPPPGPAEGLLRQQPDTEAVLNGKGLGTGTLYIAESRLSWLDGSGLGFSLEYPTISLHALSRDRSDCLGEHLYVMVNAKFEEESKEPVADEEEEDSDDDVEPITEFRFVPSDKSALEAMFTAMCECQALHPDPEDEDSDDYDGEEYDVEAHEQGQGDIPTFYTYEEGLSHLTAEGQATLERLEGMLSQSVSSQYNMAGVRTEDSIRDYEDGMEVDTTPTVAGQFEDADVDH
ICln Ser67Ala-ECFP (P54105, form named): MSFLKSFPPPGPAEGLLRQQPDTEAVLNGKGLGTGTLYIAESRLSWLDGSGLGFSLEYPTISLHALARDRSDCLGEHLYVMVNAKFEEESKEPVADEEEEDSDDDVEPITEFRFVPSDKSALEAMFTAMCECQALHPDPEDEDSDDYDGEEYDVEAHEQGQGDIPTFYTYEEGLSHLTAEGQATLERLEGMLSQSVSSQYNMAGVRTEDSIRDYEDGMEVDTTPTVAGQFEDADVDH

Assays:
[1] = biological target: T1, EYFP-OGT (O-GlcNAc-transferase with EYFP at its N-terminus) (human) (UniProt O15294); assay: FRET or BRET; acceptor photobleaching FRET in fixed HeLa cells transfected for 48 h; donor ECFP, acceptor EYFP; FRET efficiency determined within the bleaching ROIs; unstimulated cells; imaging in HBSS at room temperature
T1 sequence: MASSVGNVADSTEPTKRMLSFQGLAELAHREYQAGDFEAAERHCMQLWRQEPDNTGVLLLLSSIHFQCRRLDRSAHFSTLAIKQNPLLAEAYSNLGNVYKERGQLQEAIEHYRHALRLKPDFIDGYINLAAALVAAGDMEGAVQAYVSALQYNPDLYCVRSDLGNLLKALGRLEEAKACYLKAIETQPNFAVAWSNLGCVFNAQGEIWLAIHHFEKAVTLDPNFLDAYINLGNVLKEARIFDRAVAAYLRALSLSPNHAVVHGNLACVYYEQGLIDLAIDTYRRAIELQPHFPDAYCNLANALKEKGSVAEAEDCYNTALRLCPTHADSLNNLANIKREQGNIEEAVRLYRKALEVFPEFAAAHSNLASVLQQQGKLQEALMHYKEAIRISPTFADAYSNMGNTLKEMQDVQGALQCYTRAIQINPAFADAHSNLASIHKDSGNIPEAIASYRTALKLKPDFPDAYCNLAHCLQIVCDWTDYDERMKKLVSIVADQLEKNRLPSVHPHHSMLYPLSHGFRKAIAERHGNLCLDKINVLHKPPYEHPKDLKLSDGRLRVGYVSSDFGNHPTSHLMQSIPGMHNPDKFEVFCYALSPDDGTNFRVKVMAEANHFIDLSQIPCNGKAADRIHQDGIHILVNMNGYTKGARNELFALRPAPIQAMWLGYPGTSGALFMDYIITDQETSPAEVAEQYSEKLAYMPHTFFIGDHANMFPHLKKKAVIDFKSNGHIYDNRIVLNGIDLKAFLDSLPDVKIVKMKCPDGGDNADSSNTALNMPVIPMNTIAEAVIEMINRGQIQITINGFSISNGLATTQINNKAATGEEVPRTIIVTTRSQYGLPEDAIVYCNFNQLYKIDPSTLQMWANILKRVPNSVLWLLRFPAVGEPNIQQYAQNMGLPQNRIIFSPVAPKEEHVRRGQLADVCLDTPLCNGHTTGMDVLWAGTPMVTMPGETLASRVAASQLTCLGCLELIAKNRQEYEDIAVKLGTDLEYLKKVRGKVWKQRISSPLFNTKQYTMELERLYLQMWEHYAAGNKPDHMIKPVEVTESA

[2] = biological target: T2, EYFP-OGA (O-GlcNAcase with EYFP) (human) (UniProt O60502); assay: as above
T2 sequence: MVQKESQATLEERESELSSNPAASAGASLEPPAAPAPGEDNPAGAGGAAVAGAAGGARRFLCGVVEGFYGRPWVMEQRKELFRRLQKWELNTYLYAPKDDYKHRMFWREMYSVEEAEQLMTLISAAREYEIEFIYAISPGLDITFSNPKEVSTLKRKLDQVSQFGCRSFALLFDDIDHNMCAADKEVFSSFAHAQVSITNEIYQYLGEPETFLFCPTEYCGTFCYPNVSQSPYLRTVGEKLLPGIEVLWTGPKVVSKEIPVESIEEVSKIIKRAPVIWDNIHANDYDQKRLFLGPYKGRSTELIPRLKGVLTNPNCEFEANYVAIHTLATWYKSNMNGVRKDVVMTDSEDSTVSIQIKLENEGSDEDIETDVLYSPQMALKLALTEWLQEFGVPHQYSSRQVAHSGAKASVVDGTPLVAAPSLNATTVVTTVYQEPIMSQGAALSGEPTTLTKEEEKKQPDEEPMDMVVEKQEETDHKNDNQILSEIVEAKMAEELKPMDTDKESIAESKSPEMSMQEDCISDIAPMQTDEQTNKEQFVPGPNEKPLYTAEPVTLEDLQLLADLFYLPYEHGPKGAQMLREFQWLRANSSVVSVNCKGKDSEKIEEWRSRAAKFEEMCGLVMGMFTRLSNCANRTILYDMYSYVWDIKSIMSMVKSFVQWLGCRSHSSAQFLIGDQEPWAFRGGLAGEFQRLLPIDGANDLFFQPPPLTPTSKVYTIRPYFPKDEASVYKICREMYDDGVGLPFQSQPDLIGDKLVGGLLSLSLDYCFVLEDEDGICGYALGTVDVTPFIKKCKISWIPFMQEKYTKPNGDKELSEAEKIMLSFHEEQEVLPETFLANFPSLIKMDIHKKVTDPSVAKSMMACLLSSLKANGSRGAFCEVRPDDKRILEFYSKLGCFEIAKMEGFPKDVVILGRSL

Substance | binding [1] | binding [2]
ICln Ser67Ala-ECFP (from UniProt P54105 1-237) | binds | –
ICln-ECFP (wild-type ICln fused to enhanced cyan fluorescent protein) (from UniProt P54105 1-237) | binds | no binding
